# Data published in paper PMC7819943, “Rice protein-binding microarrays: a tool to detect cis-acting elements near promoter regions in rice”.
# The chains behind the UniProt entries cited, without tags or fusion partners.
# UniProt Q0JBA9, entry or part of it: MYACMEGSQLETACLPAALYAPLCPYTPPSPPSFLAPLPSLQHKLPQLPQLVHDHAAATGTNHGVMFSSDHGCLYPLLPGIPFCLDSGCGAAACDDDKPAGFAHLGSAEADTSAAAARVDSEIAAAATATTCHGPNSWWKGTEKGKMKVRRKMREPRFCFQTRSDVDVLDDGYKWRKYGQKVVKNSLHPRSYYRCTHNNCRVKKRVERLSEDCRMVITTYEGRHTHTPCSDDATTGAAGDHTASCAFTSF
# The other results are listed elsewhere or left out.
# Target: OsWRKY34 (Oryza sativa, UniProt Q0JBA9 1-250)
# Assay: protein-binding microarray (RPBM); PBS, 2% BSA, 51.3 ng/ul salmon testes DNA, 50 uM zinc acetate, 200 nM TF, 25 C, 1 h; high values mean tight binding
# Details: protein: recombinant; tags: N-terminal polyhistidine and DsRed monomer fusion (pET32a); label: CyDye5-dUTP incorporated in the synthesized complementary strand; 3' TTTTT single-stranded linker to array surface; dsDNA, one strand shown
# Summary of the method: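 The binding signal is fluorescence intensity per array feature (arbitrary units). Readings came from an Axon 4000B scanner after a washed, 2% BSA-blocked, double-stranded custom Agilent array had been incubated for 1 h at 25 °C with 200 nM protein and 50 µM zinc acetate. The protein was a Ni–NTA-purified transcription factor fused N-terminally to polyhistidine and DsRed, expressed in E. coli BL21-CodonPlus.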
row,Sequence,binding signal
1,GAGGCGCGCGCCACCACCGCGACAGTTTCCCGCGCTTTTTCGGAGTCACCTAGTGCAG,9220 fluorescence intensity (a.u.)
2,TTGCATCCGGGACTATTGTGGAATTCGACCGACCGACGAACGGAGTCACCTAGTGCAG,8820 fluorescence intensity (a.u.)
3,CGTGTATATATTTCTCCACTTCCTAGAGTTGGCAACACTACGGAGTCACCTAGTGCAG,9460 fluorescence intensity (a.u.)
4,GGGGTTTTTTAATCAAAGTTTATTTTTCAGCCCTTGTTTTCGGAGTCACCTAGTGCAG,8310 fluorescence intensity (a.u.)
5,ATTCACCTTGCAATGGGTTCCTTTGGGTACTTTGCCGCTCCGGAGTCACCTAGTGCAG,8900 fluorescence intensity (a.u.)
6,GGACCATCTCCGCCGCCGCCGCTGCCATCACTTCGTCCTCCGGAGTCACCTAGTGCAG,17600 fluorescence intensity (a.u.)
7,GTACAACATTCATCATCCATCACCCATATCGTTCAAGATGCGGAGTCACCTAGTGCAG,8150 fluorescence intensity (a.u.)
8,CATGCATGCTTCTATTCATTGCGATTTGCGAGCTCAATTGCGGAGTCACCTAGTGCAG,8980 fluorescence intensity (a.u.)
9,GTGAATATTTAGGCTGAGTTTTTATCTCTACTTTCCAACTCGGAGTCACCTAGTGCAG,9630 fluorescence intensity (a.u.)
10,TCTCCATCCGTCCGTCCATCCGTGCGGAACCAATCGTACGCGGAGTCACCTAGTGCAG,8780 fluorescence intensity (a.u.)
11,GTGCCATCTTTCTATTATTTAGGTCGTTGATTGCTTAAGTCGGAGTCACCTAGTGCAG,8500 fluorescence intensity (a.u.)
12,GTTCTTACTGTATCGCCTGAAATTCCTGGTGTTAAGCTCTCGGAGTCACCTAGTGCAG,8350 fluorescence intensity (a.u.)
13,GGTGGTCGTCGCCATGGCGTGCTCTGCCTTCGAGCTTTTTCGGAGTCACCTAGTGCAG,8450 fluorescence intensity (a.u.)
14,CAAATCCGCTCCGTTAGCTTCTCGCCGGCTATTCAACCTTCGGAGTCACCTAGTGCAG,11200 fluorescence intensity (a.u.)
15,CCGAACACCCTCGCCGCGCACCCCGCCTCGAAACCTCCGCCGGAGTCACCTAGTGCAG,8810 fluorescence intensity (a.u.)
16,CATCGTTGACCAAGAATAAGAACAGCGAATTTGCATAATGCGGAGTCACCTAGTGCAG,14700 fluorescence intensity (a.u.)
17,GAAGTTTTCCGAAATGCTACTTGGCCTTTTTAGCTACCAACGGAGTCACCTAGTGCAG,8550 fluorescence intensity (a.u.)
18,TATGAGATTTTTTTTATTTTCATTGTATTTATATCCAATTCGGAGTCACCTAGTGCAG,8670 fluorescence intensity (a.u.)
19,CCTATTCCACATATTCCACAAATATTTGTTGCAAGCCATCCGGAGTCACCTAGTGCAG,10000 fluorescence intensity (a.u.)
20,GTTTTTTGGTTGGGGTGTGTTTTGGTCTATCGAGGTTCAACGGAGTCACCTAGTGCAG,15600 fluorescence intensity (a.u.)
21,CTCTCGTCTCGCCCTGGCGTACGTTGTTTGTGTCACGCTTCGGAGTCACCTAGTGCAG,9120 fluorescence intensity (a.u.)
22,CTCCTCGTCCATGTCCTCGTCTTCTTTCTTCCACACCAAACGGAGTCACCTAGTGCAG,11900 fluorescence intensity (a.u.)
23,CTCCCGCCTCTGCGTCCCGCGCCGCCGCCCGCCACTCGACCGGAGTCACCTAGTGCAG,8870 fluorescence intensity (a.u.)
24,ACTTCACGCTTTCTCTCTGAGCTAGTGGTCCCACATGTCACGGAGTCACCTAGTGCAG,8560 fluorescence intensity (a.u.)
25,ATATATTGCTTGTGTTGCTTATTTTCCAATCGTCTCCTTTCGGAGTCACCTAGTGCAG,10300 fluorescence intensity (a.u.)
26,TAACTATCCCCTGTTACTACTCTTGATCCTTGTATCCCTGCGGAGTCACCTAGTGCAG,8200 fluorescence intensity (a.u.)
27,CAATCGGCTTTACTGTGCGTCTGATTACTGTGCGCGAGACCGGAGTCACCTAGTGCAG,8440 fluorescence intensity (a.u.)

# Copied from the list:
# TTGCATCCGGGACTATTGTGGAATTCGACCGACCGACGAACGGAGTCACCTAGTGCAG | binding signal: 8820 fluorescence intensity (a.u.)
# CAATCGGCTTTACTGTGCGTCTGATTACTGTGCGCGAGACCGGAGTCACCTAGTGCAG | binding signal: 8440 fluorescence intensity (a.u.)
# GTGAATATTTAGGCTGAGTTTTTATCTCTACTTTCCAACTCGGAGTCACCTAGTGCAG | binding signal: 9630 fluorescence intensity (a.u.)
# GAGGCGCGCGCCACCACCGCGACAGTTTCCCGCGCTTTTTCGGAGTCACCTAGTGCAG | binding signal: 9220 fluorescence intensity (a.u.)

# The results go on.

row,Sequence,binding signal
1,CATTCAAGCTCTACTATCCAACATCACTCGAGGTTCTTTTCGGAGTCACCTAGTGCAG,11200 fluorescence intensity (a.u.)
2,AATATTTTGGGTATTACATCGAACGTTTGACCAGATGTTGCGGAGTCACCTAGTGCAG,10200 fluorescence intensity (a.u.)
3,TATAAGACGTTTTGACTTTGGTCAAAGTCAAACTGCTTCACGGAGTCACCTAGTGCAG,13700 fluorescence intensity (a.u.)
4,ATACTTATTCCTTTTTAGCGCAACCTGATAGTGTCTCATACGGAGTCACCTAGTGCAG,8560 fluorescence intensity (a.u.)
5,CTATCATCTCCCCTCACTCTCTCTTTCTCTCCTCTCTTGCCGGAGTCACCTAGTGCAG,8080 fluorescence intensity (a.u.)
6,CGCCTCGGACCACATGCACACGCAAACCCACCGCCAATTTCGGAGTCACCTAGTGCAG,9040 fluorescence intensity (a.u.)
7,AAAAGTTCAAATATTAGTCTATCATCCTATCTATTTTTTTCGGAGTCACCTAGTGCAG,8620 fluorescence intensity (a.u.)
8,ATATCTCTCTCTGCTTACCCATGCGTACTCATGCCGTTGTCGGAGTCACCTAGTGCAG,11900 fluorescence intensity (a.u.)
9,AAATACCTCGGAACCACGGTGTCGTTATCCCCGCGTCGCGCGGAGTCACCTAGTGCAG,8600 fluorescence intensity (a.u.)
10,GTATCCATTCCTGCAAATCCAAGTTGGCAATTCCGAGGGCCGGAGTCACCTAGTGCAG,8310 fluorescence intensity (a.u.)
11,CCACCATTCTTTTATTGATTTATGTGTGAGACTGACATGTCGGAGTCACCTAGTGCAG,8420 fluorescence intensity (a.u.)
12,CCCTTCTCACCCCTTGCCTTGGCCTCCTTGCTATCATCCTCGGAGTCACCTAGTGCAG,9120 fluorescence intensity (a.u.)
13,CGTTATTGCTGATGTAGGTTTACCACAGGCTAAGCTAGCCCGGAGTCACCTAGTGCAG,8700 fluorescence intensity (a.u.)
14,AACCTATCGGAACGGCAGCTCGCCGCCCCACCAACCCAAACGGAGTCACCTAGTGCAG,8350 fluorescence intensity (a.u.)
15,CAACACAATGACCATTAACATATCAGTCACAGCTCTTATTCGGAGTCACCTAGTGCAG,8840 fluorescence intensity (a.u.)
16,CTTTTTTTTCACAAATGCTATTGTAGTTCTTCATTTTTAACGGAGTCACCTAGTGCAG,9360 fluorescence intensity (a.u.)
17,GCGGGGAACTTAACTAAAAATTCCTACACCCCTTTTGAGTCGGAGTCACCTAGTGCAG,8360 fluorescence intensity (a.u.)
18,ACGCATCCCACGCCGCCGTGCCGCCCTCTCTCTCACGCATCGGAGTCACCTAGTGCAG,8270 fluorescence intensity (a.u.)
19,CTCGCCCTTGATTGGTTCGATACACGTTTTCCCCTCGTTTCGGAGTCACCTAGTGCAG,8640 fluorescence intensity (a.u.)
20,CTTTCGTTGGCATATTTGTTTTTGTACATCATTTCTAAACCGGAGTCACCTAGTGCAG,10800 fluorescence intensity (a.u.)
21,TTTTTATGGCTAAAACATGCAAAACCTGACTTTGCATCATCGGAGTCACCTAGTGCAG,8160 fluorescence intensity (a.u.)
22,GTGATATATGTGATTGACCAAACATACAGGTACAGTAATTCGGAGTCACCTAGTGCAG,9240 fluorescence intensity (a.u.)
23,GCTCTTGCCTATTCCGTGCTTTGAGATTCGGGCGCTCTCTCGGAGTCACCTAGTGCAG,8630 fluorescence intensity (a.u.)
24,AGTCCTTGCCAATTATAACCTTCATTCATTTTTCTAATCCCGGAGTCACCTAGTGCAG,8550 fluorescence intensity (a.u.)
25,CATTCTTCCATAGGGACGACTATGTTTTTCAATTCTACTACGGAGTCACCTAGTGCAG,8510 fluorescence intensity (a.u.)
26,CGCTGCTTTCGATTCCCCTGACCGCCCCGCGTAGCCGCCGCGGAGTCACCTAGTGCAG,8910 fluorescence intensity (a.u.)
27,CTGGCATGTTACTTTTTCTGTTTGTATCTTTTCTTTCTTTCGGAGTCACCTAGTGCAG,13900 fluorescence intensity (a.u.)
